These are yes or no findings as the source states them, for the method shown. For some of these results: In cells and extracts the contact can be indirect. Some entries that bind do so weakly or less than the wild type.

Protein sequences, listed by entry. Tags and fused reporters are not part of them.
UniProt Q80TZ9, whole entry: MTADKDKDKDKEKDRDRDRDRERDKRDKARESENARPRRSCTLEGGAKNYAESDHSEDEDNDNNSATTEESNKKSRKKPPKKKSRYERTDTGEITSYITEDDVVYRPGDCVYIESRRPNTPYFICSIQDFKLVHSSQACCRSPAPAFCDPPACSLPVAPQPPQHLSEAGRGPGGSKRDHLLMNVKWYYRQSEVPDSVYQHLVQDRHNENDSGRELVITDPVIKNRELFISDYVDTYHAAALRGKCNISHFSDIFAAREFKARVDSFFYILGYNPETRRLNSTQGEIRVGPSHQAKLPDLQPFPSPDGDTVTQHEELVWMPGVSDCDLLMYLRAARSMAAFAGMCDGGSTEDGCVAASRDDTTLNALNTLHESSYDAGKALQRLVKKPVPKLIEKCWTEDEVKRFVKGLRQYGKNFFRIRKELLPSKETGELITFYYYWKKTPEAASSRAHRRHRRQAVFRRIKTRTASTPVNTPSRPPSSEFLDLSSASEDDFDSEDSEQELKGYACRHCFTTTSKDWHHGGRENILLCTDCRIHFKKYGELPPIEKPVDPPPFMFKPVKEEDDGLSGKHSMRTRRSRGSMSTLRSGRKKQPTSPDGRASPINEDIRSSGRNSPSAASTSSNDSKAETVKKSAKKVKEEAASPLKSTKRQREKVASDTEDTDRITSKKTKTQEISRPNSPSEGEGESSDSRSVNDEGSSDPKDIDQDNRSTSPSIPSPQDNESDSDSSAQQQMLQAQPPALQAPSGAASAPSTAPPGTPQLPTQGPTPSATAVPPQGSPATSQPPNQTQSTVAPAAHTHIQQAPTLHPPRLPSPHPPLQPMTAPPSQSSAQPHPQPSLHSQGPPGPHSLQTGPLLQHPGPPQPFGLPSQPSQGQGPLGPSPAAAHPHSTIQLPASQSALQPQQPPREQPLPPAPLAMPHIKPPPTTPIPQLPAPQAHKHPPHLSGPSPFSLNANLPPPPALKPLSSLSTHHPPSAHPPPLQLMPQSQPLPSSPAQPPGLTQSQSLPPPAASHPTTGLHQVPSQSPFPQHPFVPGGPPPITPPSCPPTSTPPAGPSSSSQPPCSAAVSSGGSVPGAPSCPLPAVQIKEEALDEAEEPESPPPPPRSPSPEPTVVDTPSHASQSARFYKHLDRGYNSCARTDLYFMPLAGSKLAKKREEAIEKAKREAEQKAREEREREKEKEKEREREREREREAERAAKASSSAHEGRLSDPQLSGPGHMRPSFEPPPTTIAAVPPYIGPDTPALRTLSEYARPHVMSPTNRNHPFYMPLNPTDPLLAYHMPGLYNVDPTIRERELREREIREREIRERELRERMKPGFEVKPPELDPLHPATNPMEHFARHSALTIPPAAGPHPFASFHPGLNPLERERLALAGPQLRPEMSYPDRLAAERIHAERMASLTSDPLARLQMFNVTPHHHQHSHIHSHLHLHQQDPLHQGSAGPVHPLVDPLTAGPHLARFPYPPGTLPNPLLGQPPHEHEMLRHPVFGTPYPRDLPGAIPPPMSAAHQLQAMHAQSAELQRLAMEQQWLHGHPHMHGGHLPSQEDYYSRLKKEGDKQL
UniProt O09106, whole entry: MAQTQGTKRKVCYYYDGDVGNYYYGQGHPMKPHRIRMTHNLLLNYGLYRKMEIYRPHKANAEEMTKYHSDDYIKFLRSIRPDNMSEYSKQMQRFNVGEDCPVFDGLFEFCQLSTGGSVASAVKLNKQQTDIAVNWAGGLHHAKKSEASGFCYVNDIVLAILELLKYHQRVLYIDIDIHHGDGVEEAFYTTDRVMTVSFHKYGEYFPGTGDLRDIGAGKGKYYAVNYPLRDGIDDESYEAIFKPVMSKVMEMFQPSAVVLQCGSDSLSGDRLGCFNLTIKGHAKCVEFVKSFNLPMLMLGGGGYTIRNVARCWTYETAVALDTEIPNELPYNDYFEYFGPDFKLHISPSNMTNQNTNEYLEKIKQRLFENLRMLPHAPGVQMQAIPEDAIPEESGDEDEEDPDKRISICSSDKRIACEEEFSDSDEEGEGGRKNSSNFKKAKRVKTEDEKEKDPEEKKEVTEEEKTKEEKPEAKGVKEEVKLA
UniProt P70288, whole entry: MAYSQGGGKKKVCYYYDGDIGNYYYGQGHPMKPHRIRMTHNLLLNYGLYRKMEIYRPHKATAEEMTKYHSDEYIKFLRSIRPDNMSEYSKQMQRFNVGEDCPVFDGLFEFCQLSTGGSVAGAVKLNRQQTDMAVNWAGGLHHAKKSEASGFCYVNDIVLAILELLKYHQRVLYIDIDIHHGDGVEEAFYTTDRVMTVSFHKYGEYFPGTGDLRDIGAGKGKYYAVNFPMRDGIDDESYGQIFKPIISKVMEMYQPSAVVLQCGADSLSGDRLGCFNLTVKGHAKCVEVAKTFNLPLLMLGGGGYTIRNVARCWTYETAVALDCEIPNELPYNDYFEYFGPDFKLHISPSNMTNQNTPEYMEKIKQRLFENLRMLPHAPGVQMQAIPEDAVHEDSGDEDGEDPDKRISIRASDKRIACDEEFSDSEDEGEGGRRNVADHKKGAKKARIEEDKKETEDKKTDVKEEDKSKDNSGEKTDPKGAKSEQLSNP

Test [1] addresses Rere-Flag (UniProt Q80TZ9). Description: SEC.
In test [2] the target is Rere-HA (UniProt Q80TZ9). Description: co-IP.
The target of test [3] is endogenous Rere (mouse (endogenous in NIH3T3)) (UniProt Q80TZ9). Description: co-IP.
Test [4] concerns the target Flag-Hdac1 (UniProt O09106). Description: co-IP.

Regarding Flag-Hdac1 (from UniProt O09106 1-482), the binding result in test [1] is “binds”. The same measure, in the same setting: next, Flag-Hdac2 (from UniProt P70288 1-488): “binds”.

Consider Hdac1 (from UniProt O09106 1-482), for which the binding result in test [2] and in test [3] was “binds” in each case. For Hdac2 (from UniProt P70288 1-488), the binding entry in test [2] and in test [3] was “binds” in each case.

B1: endogenous Rarα (receptor, UniProt P11416 1-462)
chain: MASNSSSCPTPGGGHLNGYPVPPYAFFFPPMLGGLSPPGALTSLQHQLPVSGYSTPSPATIETQSSSSEEIVPSPPSPPPLPRIYKPCFVCQDKSSGYHYGVSACEGCKGFFRRSIQKNMVYTCHRDKNCIINKVTRNRCQYCRLQKCFDVGMSKESVRNDRNKKKKEAPKPECSESYTLTPEVGELIEKVRKAHQETFPALCQLGKYTTNNSSEQRVSLDIDLWDKFSELSTKCIIKTVEFAKQLPGFTTLTIADQITLLKAACLDILILRICTRYTPEQDTMTFSDGLTLNRTQMHNAGFGPLTDLVFAFANQLLPLEMDDAETGLLSAICLICGDRQDLEQPDKVDMLQEPLLEALKVYVRKRRPSRPHMFPKMLMKITDLRSISAKGAERVITLKMEIPGSMPPLIQEMLENSEGLDTLSGQSGGGTRDGGGLAPPPGSCSPSLSPSSHRSSPATQSP
In the case of B1, the binding entry in test [4] is reported as “binds”.

The record behind these values is paper doi:10.1101/089201.
